These are yes or no findings as the source states them, for the method shown. Binding seen in cells or lysates may run through a third protein. Some binding calls cover weakened binding; strength is not graded here. For part of these data: Tags and fused reporters may be left off the sequences shown.
Key:
Assay in all cases: co-IP
[1] = molecular target: T1, protein phosphatase 1 regulatory inhibitor subunit 14C (human (endogenous in SUM159PT)) (UniProt Q8TAE6)
T1 sequence: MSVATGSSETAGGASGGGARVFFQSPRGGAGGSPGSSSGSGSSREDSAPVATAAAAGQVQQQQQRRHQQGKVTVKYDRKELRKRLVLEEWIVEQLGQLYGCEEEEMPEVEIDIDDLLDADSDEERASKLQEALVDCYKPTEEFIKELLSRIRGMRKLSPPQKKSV

The chains behind the UniProt entries cited, without tags or fusion partners. Where a name states a change or a piece, a line headed by the entry shows the natural chain unless it says otherwise.
UniProt P49841, whole entry: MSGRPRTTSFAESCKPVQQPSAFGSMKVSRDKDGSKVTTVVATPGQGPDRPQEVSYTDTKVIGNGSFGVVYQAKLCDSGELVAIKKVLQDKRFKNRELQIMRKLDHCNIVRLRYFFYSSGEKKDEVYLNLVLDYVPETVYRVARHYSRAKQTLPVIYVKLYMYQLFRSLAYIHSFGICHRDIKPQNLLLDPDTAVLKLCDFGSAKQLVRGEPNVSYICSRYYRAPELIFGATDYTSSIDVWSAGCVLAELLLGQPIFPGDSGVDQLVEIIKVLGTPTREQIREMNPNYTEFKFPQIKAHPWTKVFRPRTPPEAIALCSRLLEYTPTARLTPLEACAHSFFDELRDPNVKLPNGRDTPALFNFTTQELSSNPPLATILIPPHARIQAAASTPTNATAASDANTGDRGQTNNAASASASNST
UniProt Q14258, whole entry: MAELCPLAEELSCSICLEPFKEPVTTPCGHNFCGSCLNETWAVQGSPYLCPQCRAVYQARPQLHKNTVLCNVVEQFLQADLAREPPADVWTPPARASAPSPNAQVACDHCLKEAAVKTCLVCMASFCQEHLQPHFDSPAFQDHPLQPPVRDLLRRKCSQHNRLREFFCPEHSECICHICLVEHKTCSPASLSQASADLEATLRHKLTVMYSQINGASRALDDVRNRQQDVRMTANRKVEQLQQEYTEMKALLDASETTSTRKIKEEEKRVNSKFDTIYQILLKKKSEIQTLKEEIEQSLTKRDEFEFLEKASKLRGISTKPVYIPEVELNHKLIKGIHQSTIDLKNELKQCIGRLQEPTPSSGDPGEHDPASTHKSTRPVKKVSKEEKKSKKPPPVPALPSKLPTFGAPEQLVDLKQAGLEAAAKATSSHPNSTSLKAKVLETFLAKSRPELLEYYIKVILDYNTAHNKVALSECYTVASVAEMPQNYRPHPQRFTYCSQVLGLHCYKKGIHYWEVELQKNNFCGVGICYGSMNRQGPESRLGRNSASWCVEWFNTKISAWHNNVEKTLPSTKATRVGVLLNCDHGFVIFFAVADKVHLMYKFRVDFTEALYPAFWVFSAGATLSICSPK

[2] = molecular target: HA-GSK3β (UniProt P49841)
[3] = molecular target: HA-GSK3β (S9A) (UniProt P49841)
[4] = molecular target: T2, Flag-PPP1R14C (UniProt Q8TAE6)
T2 sequence: T1 sequence

Substance | binding [1] | binding [4] | other results
tripartite motif containing 25 (from UniProt Q14258 1-630) (enzyme) | binds |  | 
glycogen synthase kinase 3 beta (from UniProt P49841 1-420) (enzyme) | binds |  | 
MYC-TRIM25 (from UniProt Q14258 1-630) (enzyme) |  | binds | binding [2]: binds; binding [3]: binds
HA-GSK3β (S9A) (from UniProt P49841 1-420) (enzyme) |  | binds | 
glycogen synthase kinase 3 beta phosphorylated at Ser9 (from UniProt P49841 1-420) (enzyme) | binds |  | 
HA-GSK3β (from UniProt P49841 1-420) (enzyme) |  | binds | 
HA-GSK3β phosphorylated at Ser9 (from UniProt P49841 1-420) (enzyme) |  | binds | 

Source: paper doi:10.1101/2021.05.09.443305
